No constants are given. Whether binding was seen depends on the method and setting. Some entries that bind do so weakly or less than the wild type.
Legend:
[1] = molecular target: T1, Sec17 (yeast α-SNAP) (S. cerevisiae) (UniProt P32602); assay: two-hybrid; quantitative β-galactosidase (LacZ reporter) activity of the PJ69-4A transformants, ONPG hydrolysis; NSF as AD fusion, α-SNAP as BD fusion
T1 sequence: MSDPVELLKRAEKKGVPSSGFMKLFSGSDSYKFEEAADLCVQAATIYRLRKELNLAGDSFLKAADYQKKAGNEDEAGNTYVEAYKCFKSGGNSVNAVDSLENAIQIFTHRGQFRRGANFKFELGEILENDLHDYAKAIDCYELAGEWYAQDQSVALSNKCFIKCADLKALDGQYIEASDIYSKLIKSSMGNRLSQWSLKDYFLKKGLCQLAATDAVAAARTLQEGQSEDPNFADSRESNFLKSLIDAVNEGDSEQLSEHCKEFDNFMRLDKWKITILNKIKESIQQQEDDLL

[2] = molecular target: T1, Sec17 (yeast α-SNAP) (S. cerevisiae); assay: two-hybrid; growth spot assay in yeast PJ69-4A; NSF as Gal4 AD fusion (prey, pGAD424), α-SNAP as Gal4 BD fusion (bait, pGBT9); YCM plates LTH with 2.5 mM 3-AT and LTA, 30 °C, 2 to 3 days

B1: Sec18 (yeast NSF) (protein, UniProt P18759 1-758)
chain: MFKIPGFGKAAANHTPPDMTNMDTRTRHLKVSNCPNNSYALANVAAVSPNDFPNNIYIIIDNLFVFTTRHSNDIPPGTIGFNGNQRTWGGWSLNQDVQAKAFDLFKYSGKQSYLGSIDIDISFRARGKAVSTVFDQDELAKQFVRCYESQIFSPTQYLIMEFQGHFFDLKIRNVQAIDLGDIEPTSAVATGIETKGILTKQTQINFFKGRDGLVNLKSSNSLRPRSNAVIRPDFKFEDLGVGGLDKEFTKIFRRAFASRIFPPSVIEKLGISHVKGLLLYGPPGTGKTLIARKIGTMLNAKEPKIVNGPEILSKYVGSSEENIRNLFKDAEAEYRAKGEESSLHIIIFDELDSVFKQRGSRGDGTGVGDNVVNQLLAKMDGVDQLNNILVIGMTNRKDLIDSALLRPGRFEVQVEIHLPDEKGRLQIFDIQTKKMRENNMMSDDVNLAELAALTKNFSGAEIEGLVKSASSFAINKTVNIGKGATKLNTKDIAKLKVTREDFLNALNDVTPAFGISEEDLKTCVEGGMMLYSERVNSILKNGARYVRQVRESDKSRLVSLLIHGPAGSGKTALAAEIALKSGFPFIRLISPNELSGMSESAKIAYIDNTFRDAYKSPLNILVIDSLETLVDWVPIGPRFSNNILQMLKVALKRKPPQDRRLLIMTTTSAYSVLQQMDILSCFDNEIAVPNMTNLDELNNVMIESNFLDDAGRVKVINELSRSCPNFNVGIKKTLTNIETARHDEDPVNELVELMTQSA
binding [1]: binds
binding [2]: binds

Source: paper PMC6172762
